In PubChem BioAssay AID504467 (National Center for Advancing Translational Sciences (NCATS), 2011):
Screen size: about 330,000 compounds; about 7,700 (2.3%) were called active. Inconclusive means that the source gave no clear call. Such entries were picked first, then a sample of the others. Calls follow the shape of the dose curve; as a rule, active = well fitted inhibition curve with a large enough effect; inconclusive = small, poorly fitted or top-dose-only effect, or effect the other way; inactive = flat fitted curve, though single readings scatter. A potency beside an inconclusive call is a rough fit, not a confirmed value.

test: qHTS screen for small molecules that inhibit ELG1-dependent DNA repair in human embryonic kidney (HEK293T) cells expressing luciferase-tagged ELG1; settings: HEK293T ELG1-luciferase reporter, luminescence, 16 h, DNA damage induced by 5-fluorouridine; series mostly up to 46.1 µM; also: nearly all actives have a fitted effect of over 55% in size
Method in brief: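 5-Fluorouridine DNA damage + compound/DMSO, 2,000 cells/well, 16 h, 37 °C/5% CO2. ONE-Glo, 30 min RT, luminescence. Readout = decrease in reporter signal.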
Potency is read from the fitted curve at half-maximal effect.

| Structure (SMILES) | Potency |
| --- | --- |
| Cc1cc(C(=O)NCCc2ccc(Cl)cc2)no1 | inactive |
| OCCN(CCO)CC(O)COc1ccc2c(c1)OCO2 (stereo not drawn) | inconclusive: 2.31 µM [activator, single point] |
| COc1cc(OC)c2c(c1)OC(=O)CC2c1ccc(C)cc1 (stereo not drawn) | inconclusive: 16.4 µM [activator, partial curve, poor fit] |
| CCN(CC(=O)NCCc1ccccc1)S(=O)(=O)c1ccc(C)cc1 | inactive |
| O=C(Nc1cc(Cl)ccc1Cl)c1cc(-c2ccco2)on1 | inconclusive: 18.3 µM [activator, single point] |
| c1ccc(SCc2nc3ccccc3[nH]2)cc1 | inconclusive: 13 µM [activator, partial curve] |
| Cc1cc(C)nc(NC(N)=NC(C)c2ccccc2)n1 (stereo not drawn) | inconclusive: 29.1 µM [inhibitor, single point] |
| CCOC(=O)C1(CCCc2ccccc2)CCN(Cc2cnn(C)c2)CC1 | inconclusive: 18.3 µM [inhibitor, partial curve, poor fit] |
| O=C(NCCOc1ccccc1)c1ccccc1Cl | inconclusive: 4.61 µM [activator, partial curve] |
| COc1ccc(OC)c2sc(N3CCc4ccccc4C3)nc12 | inactive |
| O=C(COC(=O)CNC(=O)c1ccccc1)Nc1nnc(-c2ccccc2)o1 | inconclusive: 1.46 µM [activator, partial curve] |
| O=C1CCC(=O)N1c1nc2nc(-c3ccccc3)cc(=O)n2[nH]1 | inactive |
| CCN1CCS/C1=C\C=C\C1=[N+](CC)CCS1 | active: 0.58 µM |
| COc1ccc(OC)c(CCNC(=O)c2ccc(CS(=O)Cc3cccc(Cl)c3)o2)c1 (stereo not drawn) | inconclusive: 32.6 µM [inhibitor, single point] |
| CCOc1ccc(NC(=O)Cn2nc(-c3ccccc3Cl)n(CC)c2=S)cc1 | inconclusive: 14.6 µM [inhibitor, partial curve, poor fit] |
| COc1ccc(-n2c(SCC(=O)Nc3ccccc3OC)nc(O)c(Cc3ccccc3)c2=O)cc1 | inconclusive: 14.6 µM [activator, partial curve, poor fit] |
| Cc1nnc(-c2ccco2)c2cn(-c3cccc(Br)c3)nc12 | inconclusive: 16.4 µM [inhibitor, partial curve, poor fit] |
| Cc1[nH]nc2c1C(c1cc(Br)cs1)C(C#N)=C(N)O2 (stereo not drawn) | inconclusive: 20.6 µM [inhibitor, partial curve] |
| CCN(CC)C(=O)COc1ccc2oc(C)c(C(=O)OC(C)C)c2c1 | inconclusive: 25.9 µM [inhibitor, partial curve] |
| O=C(c1cccnc1)N1CCc2ccccc2C1 | inactive |
| Clc1ccc(-c2csc(N3CCCCCC3)n2)cc1 | inconclusive: 29.1 µM [activator, single point] |
| COCCCNC(=O)c1ccccc1NS(C)(=O)=O | inconclusive: 20.6 µM [activator, partial curve, poor fit] |
| CC1(N2CCOCC2)CC2(O)C(=[N+]1[O-])CCc1c2no[n+]1[O-] (stereo not drawn) | inconclusive: 7.94 µM [activator, partial curve, poor fit] |

| Structure (SMILES) | Potency |
| --- | --- |
| COc1ccc(/C=C2\C(=O)OCc3cc(OC)c(OC)cc32)cc1OC | inactive |
| Cc1cc(C(=O)Cn2cc([N+](=O)[O-])ccc2=O)c(C)n1CC1CCCO1 (stereo not drawn) | inconclusive: 18.3 µM [activator, single point] |
| COc1cccc2c(=O)cc(C)n(CC(=O)Nc3ccccc3C)c12 | inconclusive: 9.2 µM [inhibitor, partial curve] |
| C=CCn1c(SCC(=O)NC(N)=O)nnc1-c1cc2c(s1)CCC(CC)C2 (stereo not drawn) | inactive |
| Cc1ccc(SCc2nc3ccccc3n2CC(=O)Nc2ccc(Cl)cc2)cc1 | active: 7.31 µM |
| CC(=O)Nc1ccc(NC(=O)C(C)OC(=O)c2ccc(S(=O)(=O)N3CCCCC3)cc2)cc1 (stereo not drawn) | inconclusive: 25.9 µM [activator, single point] |
| COc1cccc(NC(=O)C/C(C)=N/NC(=O)c2ccccc2Cl)c1 | inactive |
| CC1CCCN(S(=O)(=O)c2ccc(Cl)s2)C1 (stereo not drawn) | inactive |
| Cc1nc(Nc2cc(F)ccc2C)c2nnn(Cc3ccccc3)c2n1 | inconclusive: 29.1 µM [inhibitor, single point] |
| CCOc1ccccc1NC(=O)c1cccc(NC(=O)C2CCCC2)c1 | inconclusive: 35.5 µM [inhibitor, single point] |
| O=C(CN1CCCc2ccccc21)N/N=C/c1c(O)ccc2ccccc12 | inactive |
| Nn1c(SCC(=O)Nc2nc3ccccc3s2)nncc1=O | inconclusive: 8.2 µM [activator, partial curve] |
| C=C(C)Cc1c(C)nc(-c2ccccc2)[nH]c1=O | inconclusive: 13 µM [activator, partial curve] |
| Cc1ccccc1NC(=O)CCN1CCN(C/C=C/c2ccccc2)CC1 | inconclusive: 20.6 µM [inhibitor, partial curve, poor fit] |
| Cc1ccc(NC(=O)CN(C)C(=O)c2cc(-c3ccco3)nc3ccccc23)cc1 | active: 13 µM |
| Cc1ccc(NC(=S)N2CCCC2)cc1Cl | inactive |
| Cc1cc(NC(=O)C2CCN(S(=O)(=O)Cc3ccccc3)CC2)ccc1-n1cnnn1 | inconclusive: 20.6 µM [inhibitor, partial curve] |
| COc1ccc(CC(=O)NCc2ccc(-n3cccc3)cc2)cc1OC | inactive |
| CC(C)(C)NC(=O)/C(=C\c1ccco1)NC(=O)c1ccco1 | inconclusive: 7.3 µM [inhibitor, partial curve, poor fit] |
| CC(C)C(=O)Nc1ccc(N2CCCC2)cc1 | inconclusive: 23.1 µM [inhibitor, partial curve, poor fit] |
| O=C(Nc1cc(Cl)cc(Cl)c1)c1cccc(OC(F)F)c1 | inconclusive: 25.9 µM [inhibitor, partial curve, poor fit] |
| O=C(N/N=C/c1cn(-c2ccccc2)nc1-c1ccc(F)cc1)c1ccc2c(c1)OCO2 | inconclusive: 18.4 µM [inhibitor, single point] |
| NC(=O)C1CC(=O)N(c2ccc(OCc3ccccc3Cl)cc2)C1 (stereo not drawn) | inconclusive: 18.3 µM [activator, single point] |

Some of the entries so far, as tab-separated lines.
Structure (SMILES)	Potency
C=CCn1c(SCC(=O)NC(N)=O)nnc1-c1cc2c(s1)CCC(CC)C2 (stereo not drawn)	inactive
Cc1ccc(SCc2nc3ccccc3n2CC(=O)Nc2ccc(Cl)cc2)cc1	active: 7.31 µM
CC(=O)Nc1ccc(NC(=O)C(C)OC(=O)c2ccc(S(=O)(=O)N3CCCCC3)cc2)cc1 (stereo not drawn)	inconclusive: 25.9 µM [activator, single point]

Later entries.

| Structure (SMILES) | Potency |
| --- | --- |
| CCN(C(=O)COC(=O)c1ccccc1SCC(=O)NC1CCCCCCC1)C1CCS(=O)(=O)C1 (stereo not drawn) | inconclusive: 8.2 µM [activator, partial curve, poor fit] |
| N#Cc1ccccc1NC(=O)c1cc(=O)c2ccccc2o1 | inconclusive: 29.1 µM [inhibitor, single point] |
| Cc1cc(=O)[nH]c(SCC(=O)Nc2nc(-c3ccccc3)cs2)n1 | inconclusive: 20.6 µM [activator, partial curve, poor fit] |
| O=C(O)c1ccccc1-c1ccccc1C(=O)Nc1ccc2c(c1)[nH]c(=O)c1ccccc12 | inconclusive: 20.6 µM [activator, partial curve, poor fit] |
| COc1ccc(C2=NCCn3c2c2ccc(C(F)(F)F)cc2[n+]3[O-])cc1 | inactive |
| Cc1cc(C)c2nc(SCC(=O)NC(=O)c3cccn3C)cc(C)c2c1 | inconclusive: 14.6 µM [inhibitor, partial curve, poor fit] |
| CN(CC(=O)Nc1ccc(Cl)c(C(F)(F)F)c1)C(=O)CCN1C(=O)C2CC=CCC2C1=O (stereo not drawn) | inconclusive: 9.2 µM [inhibitor, single point] |
| CC(C)OCc1c(C(=O)Nc2nccs2)oc2ccccc12 | inconclusive: 7.3 µM [inhibitor, partial curve] |
| CC(=O)N(Cc1cc2ccc(C)c(C)c2n2nnnc12)C1CCCC1 | inconclusive: 18.4 µM [inhibitor, single point] |
| C=CCN=C1CCCc2c1[nH]c1ccc(C)cc21 | inconclusive: 23.1 µM [activator, single point] |
| CCN(CC)S(=O)(=O)c1ccc(NC(=S)NC(=O)C(C)C)cc1 | inactive |
| CCOC(=O)c1cnc(SCc2nc(N)nc(Nc3ccc(OC)cc3)n2)nc1N | inconclusive: 23.1 µM [inhibitor, single point] |
| COc1ccccc1NC(=O)COC(=O)CNC(=O)c1ccc(OC)c(OC)c1 | inconclusive: 11.6 µM [activator, partial curve] |
| CCCc1nc(SCC(=O)Nc2cc(C)on2)c2ccccc2n1 | active: 25.9 µM |
| O=C(NC1CC1)c1cccc2c1C(=O)c1ccc(N3CCC(Cc4ccccc4)CC3)cc1S2(=O)=O | inconclusive: 11.6 µM [inhibitor, partial curve] |
| COc1ccc(-c2nn(C)c(=O)c3ccccc23)cc1NC(=O)COc1ccc(C)cc1 | inconclusive: 25.9 µM [inhibitor, partial curve, poor fit] |
| CC(=O)c1ccc(Sc2nnc(C)s2)c([N+](=O)[O-])c1 | inconclusive: 16.4 µM [inhibitor, partial curve] |
| CC1CN(S(=O)(=O)c2ccc(C(=O)NCCCn3ccnc3)cc2)CC(C)O1 (stereo not drawn) | active: 0.73 µM |
| O=C(Cc1ccccc1)Nc1ccccc1N1CCN(c2ccccc2)CC1 | inconclusive: 9.2 µM [inhibitor, single point] |
| CC(C)COC(=O)c1ccc2c(c1O)C(=O)c1ccccc1C2=O | inconclusive: 2.31 µM [activator, full curve] |
| Cc1ccc(-n2c(C)cc(C(=O)CN3CCOCC3)c2C)cc1C | inconclusive: 16.4 µM [inhibitor, partial curve, poor fit] |
| Cc1ccc(-c2ccc(SCC(=O)N3CCc4ccccc43)nn2)cc1 | inconclusive: 14.6 µM [activator, partial curve] |
